Results from the supplement of paper PMC11732987, “Enantioselective OTUD7B fragment discovery through chemoproteomics screening and high-throughput optimisation” (Communications Chemistry, 2025).
The other results are listed elsewhere or left out. The data scatter; read single values as rough.

By UniProt entry, the sequences of proteins in these tests, tags left out. Where a name states a change or a piece, a line headed by the entry shows the natural chain unless it says otherwise. Residues count along the entry.
UniProt Q7Z2T5, 303-324: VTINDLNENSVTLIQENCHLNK
UniProt Q8IZ69, 267-286: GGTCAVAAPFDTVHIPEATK
UniProt Q7Z6J9: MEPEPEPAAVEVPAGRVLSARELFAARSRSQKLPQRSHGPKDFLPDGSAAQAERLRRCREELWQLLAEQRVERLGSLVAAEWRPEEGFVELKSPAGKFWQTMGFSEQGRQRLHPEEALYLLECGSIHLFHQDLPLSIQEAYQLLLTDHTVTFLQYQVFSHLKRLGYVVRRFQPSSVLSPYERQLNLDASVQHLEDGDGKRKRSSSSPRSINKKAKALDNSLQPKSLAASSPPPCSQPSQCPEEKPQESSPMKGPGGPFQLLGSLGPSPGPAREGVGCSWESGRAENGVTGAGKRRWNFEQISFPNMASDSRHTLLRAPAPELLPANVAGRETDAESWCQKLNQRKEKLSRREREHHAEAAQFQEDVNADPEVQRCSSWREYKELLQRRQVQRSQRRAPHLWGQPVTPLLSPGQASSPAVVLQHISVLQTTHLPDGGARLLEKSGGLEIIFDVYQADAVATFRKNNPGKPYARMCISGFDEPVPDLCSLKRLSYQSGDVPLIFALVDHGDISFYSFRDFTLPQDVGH
UniProt Q9NPG3, whole entry, looked up: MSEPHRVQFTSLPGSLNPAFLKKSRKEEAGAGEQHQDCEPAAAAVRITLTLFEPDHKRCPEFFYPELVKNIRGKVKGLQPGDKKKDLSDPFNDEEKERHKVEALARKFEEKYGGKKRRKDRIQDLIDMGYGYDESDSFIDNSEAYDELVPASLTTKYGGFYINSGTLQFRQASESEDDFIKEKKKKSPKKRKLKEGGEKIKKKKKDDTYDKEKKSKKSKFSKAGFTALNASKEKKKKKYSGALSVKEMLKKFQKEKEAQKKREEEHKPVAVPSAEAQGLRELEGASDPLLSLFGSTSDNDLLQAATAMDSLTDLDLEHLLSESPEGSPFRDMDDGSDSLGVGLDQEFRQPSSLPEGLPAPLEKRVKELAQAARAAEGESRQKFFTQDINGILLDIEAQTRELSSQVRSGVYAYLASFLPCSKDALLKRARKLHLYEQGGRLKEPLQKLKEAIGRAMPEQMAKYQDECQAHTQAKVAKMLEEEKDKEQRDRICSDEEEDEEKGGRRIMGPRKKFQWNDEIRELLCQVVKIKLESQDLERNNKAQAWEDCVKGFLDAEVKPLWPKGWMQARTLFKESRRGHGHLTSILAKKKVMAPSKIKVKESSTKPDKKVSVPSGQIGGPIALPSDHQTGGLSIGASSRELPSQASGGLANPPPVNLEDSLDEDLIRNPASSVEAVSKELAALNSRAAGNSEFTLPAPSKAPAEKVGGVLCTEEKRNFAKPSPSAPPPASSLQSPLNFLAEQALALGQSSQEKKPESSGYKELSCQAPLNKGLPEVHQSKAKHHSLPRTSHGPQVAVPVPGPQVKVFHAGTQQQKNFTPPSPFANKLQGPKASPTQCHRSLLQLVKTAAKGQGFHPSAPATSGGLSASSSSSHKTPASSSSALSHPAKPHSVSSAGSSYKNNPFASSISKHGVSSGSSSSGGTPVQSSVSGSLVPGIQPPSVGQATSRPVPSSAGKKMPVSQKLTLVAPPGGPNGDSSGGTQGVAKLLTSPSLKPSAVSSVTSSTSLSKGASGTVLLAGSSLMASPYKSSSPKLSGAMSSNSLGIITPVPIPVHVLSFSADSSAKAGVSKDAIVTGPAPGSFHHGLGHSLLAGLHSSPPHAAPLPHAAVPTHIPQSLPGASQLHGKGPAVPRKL
UniProt O95155, 141-164: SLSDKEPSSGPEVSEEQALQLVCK
UniProt Q7Z7E8: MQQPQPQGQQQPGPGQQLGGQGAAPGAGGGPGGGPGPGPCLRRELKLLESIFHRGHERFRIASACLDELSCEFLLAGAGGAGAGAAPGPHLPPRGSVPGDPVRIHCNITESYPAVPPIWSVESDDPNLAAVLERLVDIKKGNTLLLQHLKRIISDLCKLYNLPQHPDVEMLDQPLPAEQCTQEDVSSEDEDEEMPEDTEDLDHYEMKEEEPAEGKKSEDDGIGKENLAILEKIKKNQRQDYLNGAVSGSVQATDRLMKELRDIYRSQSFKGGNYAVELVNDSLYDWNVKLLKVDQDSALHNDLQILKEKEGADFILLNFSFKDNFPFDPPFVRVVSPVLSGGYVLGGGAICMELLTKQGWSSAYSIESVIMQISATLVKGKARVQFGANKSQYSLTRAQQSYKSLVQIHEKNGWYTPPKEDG
UniProt P43897: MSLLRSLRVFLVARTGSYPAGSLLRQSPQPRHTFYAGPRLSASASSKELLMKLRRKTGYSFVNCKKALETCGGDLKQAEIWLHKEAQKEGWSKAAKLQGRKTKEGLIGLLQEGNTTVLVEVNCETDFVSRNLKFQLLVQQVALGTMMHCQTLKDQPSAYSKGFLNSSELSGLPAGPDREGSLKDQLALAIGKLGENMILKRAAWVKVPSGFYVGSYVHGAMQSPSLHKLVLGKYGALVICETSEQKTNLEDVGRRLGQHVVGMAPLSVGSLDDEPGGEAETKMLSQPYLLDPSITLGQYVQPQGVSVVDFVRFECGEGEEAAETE
UniProt Q9Y4A5, whole entry, looked up: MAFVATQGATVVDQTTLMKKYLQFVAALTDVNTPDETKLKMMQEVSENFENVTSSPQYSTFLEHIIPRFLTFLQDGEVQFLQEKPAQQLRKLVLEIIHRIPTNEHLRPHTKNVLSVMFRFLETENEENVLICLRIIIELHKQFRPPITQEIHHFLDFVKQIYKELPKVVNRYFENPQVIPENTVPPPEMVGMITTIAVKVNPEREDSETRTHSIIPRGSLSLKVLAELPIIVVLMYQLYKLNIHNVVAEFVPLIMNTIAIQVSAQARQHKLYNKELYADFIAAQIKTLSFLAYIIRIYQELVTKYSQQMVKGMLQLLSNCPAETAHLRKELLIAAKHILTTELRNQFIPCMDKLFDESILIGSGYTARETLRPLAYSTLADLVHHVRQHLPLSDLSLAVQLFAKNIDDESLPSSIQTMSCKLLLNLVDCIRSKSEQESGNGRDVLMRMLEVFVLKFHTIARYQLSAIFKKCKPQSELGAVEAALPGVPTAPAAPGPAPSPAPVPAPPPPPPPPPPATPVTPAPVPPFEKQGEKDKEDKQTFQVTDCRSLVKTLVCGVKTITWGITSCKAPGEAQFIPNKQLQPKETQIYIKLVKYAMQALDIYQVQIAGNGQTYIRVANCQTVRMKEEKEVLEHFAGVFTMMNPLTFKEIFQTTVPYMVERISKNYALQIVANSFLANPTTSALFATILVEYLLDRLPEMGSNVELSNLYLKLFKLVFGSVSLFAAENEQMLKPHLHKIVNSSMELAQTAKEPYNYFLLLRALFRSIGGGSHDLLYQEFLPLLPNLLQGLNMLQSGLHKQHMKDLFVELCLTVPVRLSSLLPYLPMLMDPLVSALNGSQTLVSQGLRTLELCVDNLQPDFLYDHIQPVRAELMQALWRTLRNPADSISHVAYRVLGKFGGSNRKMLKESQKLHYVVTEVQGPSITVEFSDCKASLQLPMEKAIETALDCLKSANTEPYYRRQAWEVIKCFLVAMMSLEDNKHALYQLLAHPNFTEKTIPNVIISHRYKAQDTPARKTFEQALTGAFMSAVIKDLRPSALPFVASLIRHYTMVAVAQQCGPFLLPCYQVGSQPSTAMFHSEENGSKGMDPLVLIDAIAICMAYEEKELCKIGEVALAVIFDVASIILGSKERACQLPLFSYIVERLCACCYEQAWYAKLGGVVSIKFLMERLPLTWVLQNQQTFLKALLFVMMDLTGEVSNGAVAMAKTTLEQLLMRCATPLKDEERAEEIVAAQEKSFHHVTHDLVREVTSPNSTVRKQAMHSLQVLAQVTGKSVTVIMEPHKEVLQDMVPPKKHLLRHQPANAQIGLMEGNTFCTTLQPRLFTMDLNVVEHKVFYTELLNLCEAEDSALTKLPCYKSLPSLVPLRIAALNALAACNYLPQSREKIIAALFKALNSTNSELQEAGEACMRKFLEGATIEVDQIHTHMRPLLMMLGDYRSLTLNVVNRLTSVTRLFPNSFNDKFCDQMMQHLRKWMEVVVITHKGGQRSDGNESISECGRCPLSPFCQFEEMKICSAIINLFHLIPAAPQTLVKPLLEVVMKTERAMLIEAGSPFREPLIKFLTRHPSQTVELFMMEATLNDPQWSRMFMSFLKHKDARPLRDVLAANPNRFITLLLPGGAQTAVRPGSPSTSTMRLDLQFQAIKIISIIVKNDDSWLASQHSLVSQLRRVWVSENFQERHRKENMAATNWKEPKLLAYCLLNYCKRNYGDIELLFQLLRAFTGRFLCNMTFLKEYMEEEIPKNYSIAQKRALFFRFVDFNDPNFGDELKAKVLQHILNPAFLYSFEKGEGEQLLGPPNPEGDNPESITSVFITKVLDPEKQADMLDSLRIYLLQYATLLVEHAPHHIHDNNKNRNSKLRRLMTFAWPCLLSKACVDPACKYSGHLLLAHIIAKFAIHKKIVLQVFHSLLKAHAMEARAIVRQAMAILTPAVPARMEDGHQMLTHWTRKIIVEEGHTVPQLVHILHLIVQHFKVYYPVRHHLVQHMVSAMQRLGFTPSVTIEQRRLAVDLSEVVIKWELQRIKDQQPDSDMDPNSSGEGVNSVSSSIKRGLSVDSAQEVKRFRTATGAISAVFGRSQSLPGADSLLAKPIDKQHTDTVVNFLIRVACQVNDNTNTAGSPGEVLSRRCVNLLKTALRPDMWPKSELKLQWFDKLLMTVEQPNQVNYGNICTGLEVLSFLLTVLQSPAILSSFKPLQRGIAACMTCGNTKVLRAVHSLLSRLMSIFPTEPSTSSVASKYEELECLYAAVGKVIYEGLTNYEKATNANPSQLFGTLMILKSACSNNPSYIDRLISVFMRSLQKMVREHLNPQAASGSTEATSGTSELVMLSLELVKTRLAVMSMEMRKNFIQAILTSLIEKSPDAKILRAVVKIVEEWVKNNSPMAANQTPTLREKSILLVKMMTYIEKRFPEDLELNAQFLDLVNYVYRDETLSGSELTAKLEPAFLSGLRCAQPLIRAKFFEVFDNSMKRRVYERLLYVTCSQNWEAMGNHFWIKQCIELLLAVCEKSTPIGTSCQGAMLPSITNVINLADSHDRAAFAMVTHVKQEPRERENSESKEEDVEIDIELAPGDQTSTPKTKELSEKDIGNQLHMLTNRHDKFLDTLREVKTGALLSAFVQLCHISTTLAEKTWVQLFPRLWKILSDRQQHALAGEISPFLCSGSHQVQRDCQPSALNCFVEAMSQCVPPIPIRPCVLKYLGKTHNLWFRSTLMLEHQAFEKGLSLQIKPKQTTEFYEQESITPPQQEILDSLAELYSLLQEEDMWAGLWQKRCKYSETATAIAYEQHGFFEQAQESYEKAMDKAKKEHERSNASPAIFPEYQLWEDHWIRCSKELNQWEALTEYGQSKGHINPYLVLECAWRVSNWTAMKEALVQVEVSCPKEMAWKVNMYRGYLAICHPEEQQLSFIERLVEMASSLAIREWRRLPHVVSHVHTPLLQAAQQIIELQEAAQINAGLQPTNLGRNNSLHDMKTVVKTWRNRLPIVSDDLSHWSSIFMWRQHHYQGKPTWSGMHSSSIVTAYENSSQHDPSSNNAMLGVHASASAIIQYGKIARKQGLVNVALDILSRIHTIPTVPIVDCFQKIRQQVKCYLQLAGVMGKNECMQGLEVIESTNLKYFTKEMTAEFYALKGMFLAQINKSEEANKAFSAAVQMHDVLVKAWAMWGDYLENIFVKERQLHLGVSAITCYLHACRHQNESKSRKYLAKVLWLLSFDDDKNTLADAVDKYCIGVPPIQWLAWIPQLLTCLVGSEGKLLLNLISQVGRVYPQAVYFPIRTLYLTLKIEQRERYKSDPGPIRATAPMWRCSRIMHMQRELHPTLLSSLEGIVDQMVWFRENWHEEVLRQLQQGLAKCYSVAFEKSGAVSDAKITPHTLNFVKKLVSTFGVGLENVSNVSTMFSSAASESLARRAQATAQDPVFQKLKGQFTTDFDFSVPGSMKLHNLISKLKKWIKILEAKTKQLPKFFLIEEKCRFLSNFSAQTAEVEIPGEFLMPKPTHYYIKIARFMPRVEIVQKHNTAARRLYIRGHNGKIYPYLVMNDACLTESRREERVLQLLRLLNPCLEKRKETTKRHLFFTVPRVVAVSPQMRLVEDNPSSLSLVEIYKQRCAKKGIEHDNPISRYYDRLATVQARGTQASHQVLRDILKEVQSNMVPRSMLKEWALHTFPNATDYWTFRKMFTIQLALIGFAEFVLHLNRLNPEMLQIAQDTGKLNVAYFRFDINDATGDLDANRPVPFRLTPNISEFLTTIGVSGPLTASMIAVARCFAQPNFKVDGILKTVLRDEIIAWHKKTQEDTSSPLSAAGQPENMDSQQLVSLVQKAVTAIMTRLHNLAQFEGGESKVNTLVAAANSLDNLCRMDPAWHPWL
UniProt Q969E8: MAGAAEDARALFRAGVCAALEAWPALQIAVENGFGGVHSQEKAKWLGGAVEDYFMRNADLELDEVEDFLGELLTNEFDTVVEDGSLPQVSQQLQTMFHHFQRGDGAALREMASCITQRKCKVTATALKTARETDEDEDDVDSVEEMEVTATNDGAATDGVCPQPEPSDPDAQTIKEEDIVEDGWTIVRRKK

compound: ClCC(=O)N[C@H]1CCCc2ccccc12; assay: log2 mean competition ratio of IA-DTB cysteine labelling (DMSO/compound) (log2 ratio); higher = stronger cysteine engagement by compound; conditions: 50 µM; treatment time: 4 h; cell line lysate: HEK293T
Experimental: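 IA-DTB competitive cysteine chemoproteomics in HEK293T RIPA lysate. Lysates were treated with compound 29 or 30 at 50 or 200 µM for 4 h, then IA-DTB (500 µM, 1 h), trypsin-digested, NeutrAvidin-enriched and analysed by diaPASEF. Competition ratio = intensity DMSO / intensity compound (n=4 treated, n=64 DMSO); binding: mean log2 CR ≥ 1 and p ≤ 0.05 plus QC filters. Target is the cysteine site.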

| Target | log2 mean competition ratio |
| --- | --- |
| TSTD2 C324 (UniProt Q5T7W7) | -0.244 |
| TUBGCP6 C598 (UniProt Q96RT7) | -0.193 |
| UBA6 C17 | 0.512 |
| TRMT1L C320 (UniProt Q7Z2T5) | 0.329 |
| TTC17 C114 (UniProt Q96AE7) | -0.249 |
| TSNAX C257 (UniProt Q99598) | 0.0737 |
| TRMT2A C270 (UniProt Q8IZ69) | 0.337 |
| TSEN54 C338 (UniProt Q7Z6J9) | 0.454 |
| TTC3 C109 (UniProt P53804) | 0.0683 |
| TTC21B C914 (UniProt Q7Z4L5) | -0.231 |
| TRPT1 C147 (UniProt Q86TN4) | -0.0145 |
| TUT4 C20 (UniProt Q5TAX3) | 0.153 |
| TRMU C222 (UniProt O75648) | -0.182 |
| UBN1 C467 (UniProt Q9NPG3) | 0.0228 |
| UBE4B C163 (UniProt O95155) | 0.162 |
| TRMT2A C486 (UniProt Q8IZ69) | -0.0102 |
| UBE2O C370 | 0.136 |
| UBE2Q1 C157 (UniProt Q7Z7E8) | -0.449 |
| UBN1 C765 (UniProt Q9NPG3) | 0.0639 |

| Target | log2 mean competition ratio |
| --- | --- |
| TYW1B;TYW1 C169;(C215) | 0.094 |
| TSFM C64 (UniProt P43897) | 0.11 |
| UBR4 C3414 (UniProt Q5T4S7) | -0.0952 |
| TRRAP C620 (UniProt Q9Y4A5) | 0.393 |
| TSR2 C114 (UniProt Q969E8) | 0.48 |
| TXLNG C480 (UniProt Q9NUQ3) | 0.438 |
| UBE4B C829 (UniProt O95155) | -0.228 |
| TRRAP C3849 (UniProt Q9Y4A5) | 0.106 |
| UBR4 C1900 (UniProt Q5T4S7) | 0.0423 |
| TRMT13 C59 (UniProt Q9NUP7) | 0.321 |
| TTC33 C55 (UniProt Q6PID6) | -0.0287 |
| TRRAP C2876 (UniProt Q9Y4A5) | -0.144 |
| TUBA3C;TUBA3D C347;(C347) | 0.626 |
| TSEN54 C58 (UniProt Q7Z6J9) | -0.302 |
| TRRAP C2279 (UniProt Q9Y4A5) | -0.166 |
| TRUB1 C269 (UniProt Q8WWH5) | 0.37 |
| TRPS1 C587 (UniProt Q9UHF7) | 0.17 |
| TRMT1L C730 (UniProt Q7Z2T5) | 0.00346 |
| UACA C125 (UniProt Q9BZF9) | -0.213 |

same assay, conditions: 200 µM; treatment time: 4 h; cell line lysate: HEK293T

| Target | log2 mean competition ratio |
| --- | --- |
| TSTD2 C324 (UniProt Q5T7W7) | 0.126 |
| TUBGCP6 C598 (UniProt Q96RT7) | 0.0126 |
| UBA6 C17 | -0.229 |
| TRMT1L C320 (UniProt Q7Z2T5) | -0.252 |
| TTC17 C114 (UniProt Q96AE7) | 0.225 |
| TSNAX C257 (UniProt Q99598) | 0.0852 |
| TRMT2A C270 (UniProt Q8IZ69) | 0.0592 |
| TSEN54 C338 (UniProt Q7Z6J9) | 0.565 |
| TTC3 C109 (UniProt P53804) | -0.000992 |
| TTC21B C914 (UniProt Q7Z4L5) | -0.261 |
| TRPT1 C147 (UniProt Q86TN4) | 0.0544 |
| TUT4 C20 (UniProt Q5TAX3) | 0.0555 |
| TRMU C222 (UniProt O75648) | 0.0441 |
| UBN1 C467 (UniProt Q9NPG3) | 0.0228 |
| UBE4B C163 (UniProt O95155) | -0.0431 |
| TRMT2A C486 (UniProt Q8IZ69) | 0.143 |
| UBE2O C370 | 0.175 |
| UBE2Q1 C157 (UniProt Q7Z7E8) | -0.126 |
| UBN1 C765 (UniProt Q9NPG3) | 0.0114 |

| Target | log2 mean competition ratio |
| --- | --- |
| TYW1B;TYW1 C169;(C215) | 0.301 |
| TSFM C64 (UniProt P43897) | -0.179 |
| UBR4 C3414 (UniProt Q5T4S7) | -0.0604 |
| TRRAP C620 (UniProt Q9Y4A5) | -0.00719 |
| TSR2 C114 (UniProt Q969E8) | 0.181 |
| TXLNG C480 (UniProt Q9NUQ3) | -0.165 |
| UBE4B C829 (UniProt O95155) | 0.0509 |
| TRRAP C3849 (UniProt Q9Y4A5) | 0.0681 |
| UBR4 C1900 (UniProt Q5T4S7) | 0.0426 |
| TRMT13 C59 (UniProt Q9NUP7) | 0.248 |
| TTC33 C55 (UniProt Q6PID6) | 0.00188 |
| TRRAP C2876 (UniProt Q9Y4A5) | -0.0197 |
| TUBA3C;TUBA3D C347;(C347) | 0.186 |
| TSEN54 C58 (UniProt Q7Z6J9) | 0.0405 |
| TRRAP C2279 (UniProt Q9Y4A5) | -0.233 |
| TRUB1 C269 (UniProt Q8WWH5) | -0.146 |
| TRPS1 C587 (UniProt Q9UHF7) | 0.0827 |
| TRMT1L C730 (UniProt Q7Z2T5) | 0.0595 |
| UACA C125 (UniProt Q9BZF9) | -0.17 |
